Laboratory results as given in patent US20130058960A1 (Genentech, published 2013).
These are yes or no findings as the source states them, for the method shown. Some binding calls cover weakened binding; strength is not graded here.

Key:
[1] = target: T1, TAT425 polypeptide (Homo sapiens (Human)) (UniProt O15439); assay: Western blot, ELISA, FACS and/or immunohistochemistry on cells expressing TAT425
T1 sequence: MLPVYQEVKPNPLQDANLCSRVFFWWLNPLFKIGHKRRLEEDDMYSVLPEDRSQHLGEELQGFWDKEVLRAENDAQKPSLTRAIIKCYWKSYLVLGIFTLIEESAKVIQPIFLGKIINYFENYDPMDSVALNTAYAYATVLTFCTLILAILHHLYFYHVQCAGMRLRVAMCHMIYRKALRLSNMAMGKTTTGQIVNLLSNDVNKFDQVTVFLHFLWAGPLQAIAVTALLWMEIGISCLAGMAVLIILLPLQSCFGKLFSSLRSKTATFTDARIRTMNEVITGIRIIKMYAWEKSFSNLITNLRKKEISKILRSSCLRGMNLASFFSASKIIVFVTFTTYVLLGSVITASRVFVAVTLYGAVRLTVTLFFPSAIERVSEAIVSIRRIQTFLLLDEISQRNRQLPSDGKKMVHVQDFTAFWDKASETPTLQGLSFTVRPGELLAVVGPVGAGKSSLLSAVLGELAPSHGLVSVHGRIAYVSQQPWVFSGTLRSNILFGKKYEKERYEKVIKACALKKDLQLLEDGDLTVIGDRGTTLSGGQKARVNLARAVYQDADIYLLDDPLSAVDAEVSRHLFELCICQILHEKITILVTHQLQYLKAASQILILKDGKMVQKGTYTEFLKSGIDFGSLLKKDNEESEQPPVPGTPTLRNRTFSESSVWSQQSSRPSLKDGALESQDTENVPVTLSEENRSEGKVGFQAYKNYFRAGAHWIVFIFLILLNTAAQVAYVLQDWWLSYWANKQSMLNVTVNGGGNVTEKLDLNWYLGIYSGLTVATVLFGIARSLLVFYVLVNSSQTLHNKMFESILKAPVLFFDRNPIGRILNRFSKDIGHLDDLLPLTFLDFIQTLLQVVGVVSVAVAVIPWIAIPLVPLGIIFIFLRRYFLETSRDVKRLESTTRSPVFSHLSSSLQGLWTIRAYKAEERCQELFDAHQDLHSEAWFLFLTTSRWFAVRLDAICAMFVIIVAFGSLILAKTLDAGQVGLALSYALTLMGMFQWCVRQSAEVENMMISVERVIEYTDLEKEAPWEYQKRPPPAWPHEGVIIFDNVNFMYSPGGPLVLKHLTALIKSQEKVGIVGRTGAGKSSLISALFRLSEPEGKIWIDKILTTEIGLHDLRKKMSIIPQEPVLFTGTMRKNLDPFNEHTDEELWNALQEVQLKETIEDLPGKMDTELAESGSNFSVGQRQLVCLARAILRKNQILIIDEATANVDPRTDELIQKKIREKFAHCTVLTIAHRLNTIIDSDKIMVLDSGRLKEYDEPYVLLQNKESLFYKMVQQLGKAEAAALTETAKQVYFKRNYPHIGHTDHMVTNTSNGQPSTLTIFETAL

[2] = target: T1, TAT425 polypeptide (Homo sapiens (Human)); assay: competitive binding experiment, details not given

binding [1]: binds
binding [2]: binds
B1: anti-TAT425 monoclonal antibody 4D11.17.2 (antibody, V domains shown)
VH: EVQLQQSGPELVKPGASVKMSCKASGYTFTDYYMKWVKQSLGEGLEWIGDINPYNGDTFYNKKFKGKASLTVDKSSTTAYMDLNSLTSEDSAVYFCARLGEMAYFDYWGQGTSLTVSS
VL: DVLMTQTPLSLPVSLGDQASISCRSSQSIVHSNGNTYLDWYLQKPGQSPKLLIYKVSNRFSGVPDRFSGSGSGTDFTLKISRVEAEDLGVYYCFQGSHVPWTFGGGTKLEIKR
